Values from PubChem BioAssay AID652259 (Drosophila RNAi Screening Center, 2013).
The screen tested about 22,000 reagents; this is an unselected part of those that have a named target and a result. Of all reagents, 233 (1.1%) are marked active. 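Light values are raw, unnormalised plate reads; the ratio scores behind the reporter calls were not deposited.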 Unmarked entries are inactive. Reagents against one gene are numbered here. Names joined by + are all predicted targets of the reagent. Reagent sequences are not shown. Not given: the amount of reagent, the time to read-out, the dose of the treatment.

- Assay: 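Knock-downs that push a Wingless-driven reporter up or down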 (primary screen)
- Cell system: Drosophila clone 8 imaginal disc epithelial cells
- Knock-down reagent: long dsRNA against Drosophila genes
- Challenge: pathway stimulated by co-transfected Wingless expression plasmid
- Measurement: 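Dual luciferase reads per well after Wingless plasmid stimulation: reporter firefly light and Renilla control light; activity is firefly divided by Renilla, a ratio not deposited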
- Scale: firefly reporter light: higher = more Wg reporter light, before normalisation; Renilla control light: higher = more transfected or surviving cells
- Active means: 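a knock-down is a candidate when at least two out of four statistical tests show it departing from its plate mean; one test alone signals a weak candidate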
- Meaning of the calls: active = candidate regulator (raises or lowers reporter); inactive = not a candidate

trx (GeneID 41737) — firefly reporter light, replicate 1: 6821; Renilla control light, replicate 1: 1225
His2Av (GeneID 43229) — firefly reporter light, replicate 1: 3367; firefly reporter light, replicate 2: 10566; Renilla control light, replicate 1: 729; Renilla control light, replicate 2: 1097
sals (GeneID 41377) #1 — firefly reporter light, replicate 1: 12342; Renilla control light, replicate 1: 3346
sals (GeneID 41377) #2 — reporter change call, replicate 1: Wg reporter activity lowered (active); firefly reporter light, replicate 1: 3568; Renilla control light, replicate 1: 2902
CG17931 + CG42446 — firefly reporter light, replicate 1: 21170; Renilla control light, replicate 1: 6304
pcm (GeneID 32935) — firefly reporter light, replicate 1: 2937; firefly reporter light, replicate 2: 7825; Renilla control light, replicate 1: 1829; Renilla control light, replicate 2: 1351
Creld (GeneID 33166) — firefly reporter light, replicate 1: 2044; firefly reporter light, replicate 2: 3680; Renilla control light, replicate 1: 940; Renilla control light, replicate 2: 1527
CG14190 (GeneID 32891) — firefly reporter light, replicate 1: 22059; Renilla control light, replicate 1: 9846

2 of these entries in another layout:
predicted target,reagent,"reporter change call, replicate 1","firefly reporter light, replicate 1","firefly reporter light, replicate 2","Renilla control light, replicate 1","Renilla control light, replicate 2"
sals (GeneID 41377),2,Wg reporter activity lowered (active),3568,,2902,
CG17931 + CG42446,1,,21170,,6304,

More results follow:
pira (GeneID 32229) — firefly reporter light, replicate 1: 17937; Renilla control light, replicate 1: 7484
CG31122 (GeneID 42221) #1 — firefly reporter light, replicate 1: 3619; firefly reporter light, replicate 2: 12342; Renilla control light, replicate 1: 1203; Renilla control light, replicate 2: 2965
CG31122 (GeneID 42221) #2 — firefly reporter light, replicate 1: 17161; Renilla control light, replicate 1: 3067
CG2681 (GeneID 31258) — firefly reporter light, replicate 1: 2843; firefly reporter light, replicate 2: 11147; Renilla control light, replicate 1: 1096; Renilla control light, replicate 2: 3399
alpha-Man-Ib (GeneID 43436) — firefly reporter light, replicate 1: 3059; firefly reporter light, replicate 2: 3721; Renilla control light, replicate 1: 1584; Renilla control light, replicate 2: 624
CG34429 (GeneID 5740606) — firefly reporter light, replicate 1: 6268; Renilla control light, replicate 1: 2952
comm2 (GeneID 39716) #1 — reporter change call, replicate 1: Wg reporter activity raised (active); firefly reporter light, replicate 1: 8104; Renilla control light, replicate 1: 860
comm2 (GeneID 39716) #2 — firefly reporter light, replicate 1: 8304; Renilla control light, replicate 1: 3805
Ocho (GeneID 39621) — firefly reporter light, replicate 1: 6679; Renilla control light, replicate 1: 2840
Rexo5 (GeneID 38740) — firefly reporter light, replicate 1: 1337; firefly reporter light, replicate 2: 9628; Renilla control light, replicate 1: 661; Renilla control light, replicate 2: 2874
Tsp42Ed (GeneID 35613) — firefly reporter light, replicate 1: 2445; firefly reporter light, replicate 2: 5993; Renilla control light, replicate 1: 875; Renilla control light, replicate 2: 3100
nesd (GeneID 35298) — firefly reporter light, replicate 1: 11853; Renilla control light, replicate 1: 3504
CG17364 (GeneID 39543) #1 — firefly reporter light, replicate 1: 3623; Renilla control light, replicate 1: 2061
CG17364 (GeneID 39543) #2 — firefly reporter light, replicate 1: 11045; Renilla control light, replicate 1: 4275
CG17364 (GeneID 39543) #3 — firefly reporter light, replicate 1: 6.18e5; firefly reporter light, replicate 2: 6.22e5; Renilla control light, replicate 1: 2.09e5; Renilla control light, replicate 2: 1.46e5
CycD (GeneID 32551) — firefly reporter light, replicate 1: 13514; Renilla control light, replicate 1: 7188
Ir7g (GeneID 31694) — firefly reporter light, replicate 1: 17552; Renilla control light, replicate 1: 7709
